{"source": "PubChem BioAssay AID1259254 – NCATS – 2017", "test": "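Finding genes that stop cells copying their DNA twice in one cycle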 (primary screen)", "system": "human HCT116 colorectal cancer cells", "knock-down reagent": "single siRNA against human genes", "timing": "3 days", "measured": "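Imaged Hoechst DNA stain sorts each cell into a cycle phase by DNA amount; per plate, G2 fraction set to 0% for non-targeting and 100% for GMNN siRNA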", "direction": "G2 robust z-score: higher = more G2 cells, more excess DNA replication", "active means": "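An siRNA counts as active if its G2 robust z-score lies at least 5 MADs above the screen median; here such calls match roughly 38% of GMNN control or more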", "note": "Shown is an unselected part of about 59,000 reagents tested. In the full data, about 1,550 (2.6%) got an active call. 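G2 share is only a proxy for re-replication; each gene was hit by three separate siRNAs, and active genes were retested.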 Reagents against one gene are numbered here. Further read-outs or replicates are left out here. Not given: the amount of reagent."}
{"target gene": "CDC42P6", "siRNA no.": 1, "G2 robust z-score": 2.3, "call": "inactive"}
{"target gene": "CDC42P6", "siRNA no.": 2, "G2 robust z-score": 0.807, "call": "inactive"}
{"target gene": "CDC42P6", "siRNA no.": 3, "G2 robust z-score": 0.61, "call": "inactive"}
{"target gene": "LOC643659 (retired record)", "siRNA no.": 1, "G2 robust z-score": 2.17, "call": "inactive"}
{"target gene": "LOC643659 (retired record)", "siRNA no.": 2, "G2 robust z-score": 0.204, "call": "inactive"}
{"target gene": "LOC643659 (retired record)", "siRNA no.": 3, "G2 robust z-score": 1.68, "call": "inactive"}
{"target gene": "RLN3", "siRNA no.": 1, "G2 robust z-score": -0.49, "call": "inactive"}
{"target gene": "RLN3", "siRNA no.": 2, "G2 robust z-score": 1.43, "call": "inactive"}
{"target gene": "RLN3", "siRNA no.": 3, "G2 robust z-score": -0.55, "call": "inactive"}
{"target gene": "ORC5", "siRNA no.": 1, "G2 robust z-score": -0.359, "call": "inactive"}
{"target gene": "ORC5", "siRNA no.": 2, "G2 robust z-score": 0.0416, "call": "inactive"}
{"target gene": "ORC5", "siRNA no.": 3, "G2 robust z-score": -0.136, "call": "inactive"}
{"target gene": "LURAP1L", "siRNA no.": 1, "G2 robust z-score": -0.0972, "call": "inactive"}
{"target gene": "LURAP1L", "siRNA no.": 2, "G2 robust z-score": 1.43, "call": "inactive"}
{"target gene": "LURAP1L", "siRNA no.": 3, "G2 robust z-score": 0.28, "call": "inactive"}
{"target gene": "TXNDC15", "siRNA no.": 1, "G2 robust z-score": 0.801, "call": "inactive"}
{"target gene": "TXNDC15", "siRNA no.": 2, "G2 robust z-score": 2.33, "call": "inactive"}
{"target gene": "TXNDC15", "siRNA no.": 3, "G2 robust z-score": -0.687, "call": "inactive"}
{"target gene": "CCDC25", "siRNA no.": 1, "G2 robust z-score": -0.358, "call": "inactive"}
{"target gene": "CCDC25", "siRNA no.": 2, "G2 robust z-score": 0.435, "call": "inactive"}
{"target gene": "CCDC25", "siRNA no.": 3, "G2 robust z-score": 1.95, "call": "inactive"}
{"target gene": "TRMT13", "siRNA no.": 1, "G2 robust z-score": 0.605, "call": "inactive"}
{"target gene": "TRMT13", "siRNA no.": 2, "G2 robust z-score": -0.537, "call": "inactive"}
{"target gene": "TRMT13", "siRNA no.": 3, "G2 robust z-score": -0.977, "call": "inactive"}

Reformatted: results already given.
| target gene | siRNA no. | G2 robust z-score | call |
| --- | --- | --- | --- |
| RLN3 | 2 | 1.43 | inactive |
| RLN3 | 3 | -0.55 | inactive |
| ORC5 | 1 | -0.359 | inactive |
